Results: PubChem BioAssay AID493014 (National Center for Advancing Translational Sciences (NCATS), 2011)
This is one part of the list. Further columns of the screen follow, without active or inactive calls. The list favours compounds with an active or inconclusive main result. Words in brackets tell the shape of the fitted curve; partial curves, single points and poor fits give uncertain potencies.

Assay: qHTS Assay to Find Inhibitors of Chronic Active B-Cell Receptor Signaling
Conditions: ABC-DLBCL IkBa-CBG/CBR reporter, luminescence ratio (green luciferase fused to IkBa over red control in TMD8 lymphoma cells), 4 h
Summary of the method: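 TMD8 human ABC-DLBCL cells with doxycycline-inducible IκBα–green luciferase fusion and unfused red luciferase, in 0.5% FBS medium; compounds up to 46 uM, 4 h at 37C. Green/red luminescence ratio, filter-overlap corrected, fitted to concentration-response curves.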

[1] = measured here: CBR red luminescence, cell number

| SMILES | AC50 [1] | AC50 (measured here: IkBa-CBG green luminescence) |
| --- | --- | --- |
| C[C@@H]1NS(=O)(=O)[C@H]2C[C@@H]3C=C[C@]2(O3)[C@H]1OC(=O)c1ccccc1Br | 0.164 µM [falling, full curve, poor fit] | – |
| O=C(O)CC1(CC(=O)Nc2ccc3c(c2)OCCCO3)CCCCC1 | 22.4 µM [falling, single point] | – |
| CN(C)C(=O)CSc1nnc(-c2ccncc2)n1Cc1ccco1 | 0.501 µM [rising, full curve, poor fit] | – |
| O=C(O)c1ccccc1SC1CC(=O)N(c2ccc3c(c2)OCO3)C1=O (stereo unspecified) | 35.5 µM [falling, single point] | – |
| O=[N+]([O-])c1c(NCCCO)cc(Sc2nc3ccccc3s2)c2nonc12 | 6.31 µM [rising, single point] | – |
| N#CC1C=Cc2ccccc2N1C(=O)c1ccccc1 (stereo unspecified) | 5.62 µM [falling, single point] | – |
| COc1ccccc1OCc1ccc(C(=O)NCc2ccco2)o1 | 16.4 µM [falling, partial curve, poor fit] | – |
| Clc1cccc(Cl)c1C1Nc2cccc3cccc(c23)N1 | 5.62 µM [falling, single point] | – |
| Cc1cccc(-n2nnc(C(=O)NCc3ccco3)c2N)c1 | 35.5 µM [falling, single point] | – |
| CCOc1ccc(C2C(C(C)=O)=C(O)C(=O)N2CCc2c[nH]c3ccccc23)cc1 (stereo unspecified) | 28.2 µM [falling, single point] | – |
| COc1cc(OC)cc(C(=O)Nc2cccc(C(C)=O)c2)c1 | 2.91 µM [falling, partial curve, poor fit] | – |
| O=C(C#Cc1ccccc1)Nc1ccc(F)cc1 | 12.6 µM [falling, partial curve] | – |
| CCOC(=O)c1[nH]cnc1C(=O)N1CCC(C)CC1 | 25.9 µM [rising, single point] | – |
| COc1ccc(N(CC(=O)N2CCN(C)CC2)S(C)(=O)=O)cc1OC | 23.1 µM [rising, partial curve, poor fit] | – |
| C=CC[C@@H](Cc1ccc(F)cc1)C(=O)OC[C@@H]1CCCN1C(=O)[C@@H](CC=C)CC(=O)N[C@H](CO)Cc1ccccc1 | 29.1 µM [falling, single point] | – |
| O=C(CN1CCc2ccccc21)NCc1ccccc1Cl | 16.4 µM [falling, partial curve] | – |
| O=C(c1cc(-c2ccccc2Cl)nc2ccccc12)N1CCOCC1 | 10 µM [falling, partial curve, poor fit] | – |
| CN(Cc1ccccc1)S(=O)(=O)c1cccs1 | 0.82 µM [falling, full curve, poor fit] | – |
| Cc1cc(C)cc(-n2ncc3c2CCCC3NC(=O)c2cc(C)n(C)n2)c1 (stereo unspecified) | 35.5 µM [falling, partial curve, poor fit] | – |
| COC(=O)c1cc2n(n1)CCN(Cc1ccccc1Cl)C2=O | 25.1 µM [falling, single point] | – |
| COc1cc2cnc(-c3ccsc3)cc2cc1OC | 0.82 µM [rising, full curve, poor fit] | – |
| O=c1[nH]c2cc([N+](=O)[O-])c(NCCO)c([N+](=O)[O-])c2[nH]1 | 35.5 µM [rising, single point] | – |

| SMILES | AC50 [1] | AC50 (measured here: IkBa-CBG green luminescence) |
| --- | --- | --- |
| COc1ccc(-c2nnc3sc(-c4ccccc4OC)nn23)cc1 | 6.31 µM [rising, partial curve, poor fit] | – |
| C=CCn1cnnc1SCC(=O)N(C)CC1COc2ccccc2O1 (stereo unspecified) | 0.00411 µM [rising, full curve, poor fit] | – |
| CN(C)S(=O)(=O)N(CC(=O)Nc1ccc2ccccc2c1)c1ccccc1 | 1.64 µM [falling, full curve] | – |
| C=CCNC(=S)N/N=C/c1ccc(C)c([N+](=O)[O-])c1 | 29.1 µM [rising, single point] | – |
| COc1ccc(OC)c(NC(=O)CSc2ncccc2C(=O)O)c1 | 0.82 µM [falling, full curve, poor fit] | – |
| COc1ccccc1CNC(=O)/C=C/c1cc2c(cc1Br)OCO2 | 10 µM [falling, partial curve, poor fit] | – |
| C=CCc1cccc(/C=N/NC(=O)CNc2ccccc2OC)c1O | 35.5 µM [falling, single point] | – |
| Cc1nc(N2CCN(Cc3nc4ccccc4[nH]3)CC2)c2oc3ccccc3c2n1 | 25.1 µM [falling, single point] | – |
| COCC(=O)Nc1ccc(F)cc1 | 15.8 µM [falling, single point] | – |
| COc1ccc(-c2csc(NC(=O)c3ccccc3OC)c2C(=O)O)cc1OC | 2.24 µM [falling, full curve] | – |
| CN(C)CCCNc1c2ccccc2nc2ccccc12 | 14.1 µM [falling, partial curve, poor fit] | – |
| CCOC(=O)C1(Cc2cccc(OC)c2)CCN(C/C=C/c2ccccc2)CC1 | 3.16 µM [rising, partial curve, poor fit] | – |
| Cc1ccc(CN(C)C(=O)CN2C(=O)NC3(CCCc4ccccc43)C2=O)c(C)c1 (stereo unspecified) | 0.103 µM [rising, full curve, poor fit] | – |
| O=C(c1ccco1)n1nc(NCc2ccccc2)nc1NCc1ccccc1 | 29.1 µM [falling, single point] | – |
| CC(C)Cn1c2ccccc2c2cc(C(=O)O)ccc21 | 0.184 µM [falling, full curve, poor fit] | – |
| COc1ccc(CC(C)Nc2ccccc2F)cc1 (stereo unspecified) | 35.5 µM [rising, single point] | – |
| CCc1c(-c2ccccc2)nc2sc3c(c2c1N)CCCC3 | 35.5 µM [falling, single point] | – |
| Oc1ccc(C2CNCc3sccc32)cc1O (stereo unspecified) | 29.1 µM [falling, single point] | – |
| O=C1C(Nc2cccc(O)c2)=C(N2CCCCC2)C(=O)c2ccccc21 | 11.2 µM [falling, partial curve, poor fit] | – |
| COc1cc2ccccc2cc1C(=O)Nc1ccc(C)cc1 | 35.5 µM [falling, single point] | – |
| Cc1ccc(NC(=O)CN(c2ccc(Cl)cc2)S(=O)(=O)c2cc([N+](=O)[O-])ccc2Cl)c(C)c1 | 3.16 µM [falling, partial curve, poor fit] | – |
| CCCn1c(=O)[nH]c(=O)c2c1nc(-c1ccc(OC(F)F)cc1)n2CCN1CCOCC1 | 32.6 µM [rising, single point] | – |

| SMILES | AC50 [1] | AC50 (measured here: IkBa-CBG green luminescence) |
| --- | --- | --- |
| COC(=O)c1sccc1N/C=C(\C#N)S(=O)(=O)C(C)(C)C | 0.1 µM [rising, full curve, poor fit] | – |
| Cn1c2c(c(=O)c3ccccc31)CCC(C)(C)O2 | 14.6 µM [rising, partial curve, poor fit] | – |
| CC(C)c1ccc(NC(=O)c2cc(S(=O)(=O)NCCc3ccccc3)ccc2F)cc1 | 2.51 µM [falling, full curve, poor fit] | – |
| O=C(CCCn1c(=O)c2ccccc2n(CC(=O)NCc2ccco2)c1=O)NCc1ccco1 | 2.59 µM [falling, single point] | – |
| CCn1c(SCc2ccccc2)nnc1-c1cccs1 | 29.1 µM [rising, single point] | – |
| O=C1Cc2cc(S(=O)(=O)Nc3cccc(C(F)(F)F)c3)cc3c2N1CCC3 | 0.501 µM [falling, full curve, poor fit] | – |
| COc1ccc(OC)c(NC(=O)c2cccnc2Sc2ccccc2)c1 | 16.4 µM [rising, partial curve, poor fit] | – |
| Cc1cc(C(=O)Nc2cccc(C(=O)O)c2)oc1C | 1.46 µM [falling, full curve] | – |
| COc1ccc(CCNC(=O)c2cc3c(cc2Cl)N2CCCCCC2=NS3(=O)=O)cc1 | 29.1 µM [falling, single point] | – |
| COc1cccc(/C=N/Nc2nccnc2Cl)c1O | 22.4 µM [falling, partial curve, poor fit] | – |
| COc1ccccc1Nc1nc(N)nc(CSc2nc(C)cc(C)n2)n1 | 12.6 µM [rising, partial curve] | 10 µM [falling, partial curve, poor fit] |
| CCOC(=O)C1=C(CC)Nc2ccccc2N=C1NC(=O)Cn1cnc2ccccc2c1=O | 0.366 µM [rising, full curve, poor fit] | – |
| COc1ccccc1NC(=O)C(=O)N/N=C(\C)CC(=O)Nc1ccc(OCc2ccccc2)cc1 | 2.51 µM [falling, full curve] | – |
| C=CCc1cc2c(oc(=O)c3ccccc32)c(C)c1O | 35.5 µM [rising, single point] | – |
| Cc1csc(NC(=O)Nc2ccccc2[N+](=O)[O-])n1 | 11.2 µM [falling, partial curve, poor fit] | – |
| COc1ccc(NC(=O)CN(C)CC(=O)c2c(C)[nH]c3ccccc23)cc1 | 16.4 µM [falling, partial curve, poor fit] | – |
| Cc1c(C(=O)Nc2ccccc2F)sc2nc3n(c(=O)c12)CCC3 | 2.51 µM [falling, full curve, poor fit] | – |
| COc1cccc(NC(=O)CSc2nnc(-c3ccoc3C)n2CC2CCCO2)c1 (stereo unspecified) | 35.5 µM [falling, single point] | – |
| Cc1nn(Cc2ccccc2)c(C)c1/C=N/NC(=O)c1ccccc1O | 22.4 µM [falling, single point] | – |
| CCCN(CCC)S(=O)(=O)c1ccc(C(=O)N2CCCc3ccccc32)cc1 | 32.6 µM [falling, single point] | – |
| Cc1nn(C(=O)c2ccco2)c(C)c1Sc1ccc(Cl)cc1 | 5.8 µM [falling, full curve] | – |

Entries of single compounds from above. Values in the order: AC50 [1]	AC50 (measured here: IkBa-CBG green luminescence)
CCOC(=O)C1=C(CC)Nc2ccccc2N=C1NC(=O)Cn1cnc2ccccc2c1=O is entered as 0.366 µM [rising, full curve, poor fit]	–
Cc1cc(C(=O)Nc2cccc(C(=O)O)c2)oc1C is entered as 1.46 µM [falling, full curve]	–
Cn1c2c(c(=O)c3ccccc31)CCC(C)(C)O2 is entered as 14.6 µM [rising, partial curve, poor fit]	–
